Construct, isoform or probe ends are uncertain for at least one entry. Weaker means in comparison with the reference protein, sequence or condition of that experiment. For some of these results: Tags and fusion partners may be left off the protein sequences shown.
Columns and labels:
Assay in all cases: electrochemical aptasensor (DPV)
Details in all cases: 100x concentration over AFP (100 ng/mL), weak signal change; 5'-SH; 3'-methylene blue; Optimized: pH 7, 4 uM aptamer, 40 min aptamer and 30 min AFP incubation; PBS (0.01 M) listed as reagent; temperature not stated for binding; commercial protein; label: 3'-methylene blue; single-stranded DNA
[1] = biological target: bovine serum albumin (BSA) (bovine) (UniProt P02769)
[2] = biological target: prostate-specific antigen (PSA) (UniProt P07288)
hemoglobin (HGB) = system: hemoglobin (HGB)
ovalbumin (OVA) = biological target: T1, ovalbumin (OVA) (UniProt P01012)
T1 sequence (looked up, limits assumed): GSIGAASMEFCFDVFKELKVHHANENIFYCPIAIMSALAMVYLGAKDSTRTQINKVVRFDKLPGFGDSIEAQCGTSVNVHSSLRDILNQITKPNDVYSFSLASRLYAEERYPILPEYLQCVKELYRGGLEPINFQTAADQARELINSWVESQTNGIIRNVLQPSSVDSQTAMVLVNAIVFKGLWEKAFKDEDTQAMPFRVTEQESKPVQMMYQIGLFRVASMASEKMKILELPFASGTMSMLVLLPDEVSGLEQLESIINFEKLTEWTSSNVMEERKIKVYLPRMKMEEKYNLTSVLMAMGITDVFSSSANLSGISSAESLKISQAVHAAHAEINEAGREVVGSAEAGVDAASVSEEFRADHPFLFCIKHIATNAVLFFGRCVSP

Amino acid sequences for entries named in this document (tags omitted). Residues count along the entry.
UniProt P02769, 25-607: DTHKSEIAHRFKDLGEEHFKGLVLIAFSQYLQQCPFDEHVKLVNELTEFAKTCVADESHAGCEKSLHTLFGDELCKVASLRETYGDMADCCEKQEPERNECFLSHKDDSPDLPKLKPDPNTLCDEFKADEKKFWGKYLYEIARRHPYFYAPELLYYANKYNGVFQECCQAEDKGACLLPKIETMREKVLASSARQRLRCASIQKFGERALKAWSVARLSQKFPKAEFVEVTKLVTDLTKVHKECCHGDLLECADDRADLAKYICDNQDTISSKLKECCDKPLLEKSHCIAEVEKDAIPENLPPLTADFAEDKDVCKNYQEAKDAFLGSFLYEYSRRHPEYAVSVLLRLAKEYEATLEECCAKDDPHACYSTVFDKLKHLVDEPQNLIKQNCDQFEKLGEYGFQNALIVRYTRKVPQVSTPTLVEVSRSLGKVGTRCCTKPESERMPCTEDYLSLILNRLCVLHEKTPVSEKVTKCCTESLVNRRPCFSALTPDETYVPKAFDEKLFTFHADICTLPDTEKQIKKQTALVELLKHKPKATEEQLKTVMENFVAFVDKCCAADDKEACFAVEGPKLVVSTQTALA
UniProt P07288, 25-261: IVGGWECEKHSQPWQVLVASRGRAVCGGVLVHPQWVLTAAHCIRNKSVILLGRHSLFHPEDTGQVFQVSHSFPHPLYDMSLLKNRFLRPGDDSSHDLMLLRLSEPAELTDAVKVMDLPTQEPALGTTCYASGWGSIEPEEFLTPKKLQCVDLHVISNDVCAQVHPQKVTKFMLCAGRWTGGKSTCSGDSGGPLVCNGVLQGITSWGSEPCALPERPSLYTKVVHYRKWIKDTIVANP

Measured: binding result

GTGACGCTCCTAACGCTGACTCAGGTGCAGTTCTCGACTCGGTCTTGATGTGGGTCCTGTCCGTCCGAACCAATC [AFP aptamer]
binds more weakly: all assays above

— article PMC11678932
